# This is one part of the list.
# B1: HHL-2 (Homo sapiens), P07307 (protein)
# chain: MAKDFQDIQQLSSEENDHPFHQGEGPGTRRLNPRRGNPFLKGPPPAQPLAQRLCSMVCFSLLALSFNILLLVVICVTGSQSEGHRGAQLQAELRSLKEAFSNFSSSTLTEVQAISTHGGSVGDKITSLGAKLEKQQQDLKADHDALLFHLKHFPVDLRFVACQMELLHSNGSQRTCCPVNWVEHQGSCYWFSHSGKAWAEAEKYCQLENAHLVVINSWEEQKFIVQHTNPFNTWIGLTDSDGSWKWVDGTDYRHNYKNWAVTQPDNWHGHELGGSEDCVEVQPDGRWNDDFCLQVYRWVCEKRRNATGEVA
# Experiments:
# Experiment in all cases: glycan array binding signal (z-score within array); higher = stronger binding
# Conditions in all cases: glycan notation: IUPAC condensed, linker removed
# [1] = target: Neu5Ac(a2-6)Gal(b1-4)GlcNAc(b1-3)Gal(b1-4)GlcNAc
# Summary of the method: (§1)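 From the Consortium for Functional Glycomics database, 3228 arrays were curated, keeping only those whose protein sequence was available. Binding is given as a within-array Z-score averaged across arrays sharing a protein sequence and across linkers. Negative Z-scores can be read as non-binding.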
# [2] = target: Neu5Ac(a2-6)Gal(b1-4)GlcNAc(b1-3)Gal(b1-4)GlcNAc(b1-3)Gal(b1-4)GlcNAc
# Summary of the method: as §1
# [3] = target: Neu5Ac(a2-6)Gal(b1-4)GlcNAc(b1-3)Gal(b1-4)[Fuc(a1-3)]GlcNAc(b1-3)Gal(b1-4)[Fuc(a1-3)]GlcNAc
# Summary of the method: as §1
# [4] = target: Neu5Ac(a2-6)Gal(b1-4)GlcNAc(b1-3)GalNAc
# Summary of the method: as §1
# [5] = target: Neu5Ac(a2-6)Gal(b1-4)GlcNAc6S
# Summary of the method: as §1
# [6] = target: Neu5Ac(a2-6)GalNAc
# Summary of the method: as §1
# [7] = target: Neu5Ac(a2-6)GalNAc(b1-4)GlcNAc
# Summary of the method: as §1
# [8] = target: Neu5Ac(a2-6)GlcNAc(b1-4)GlcNAc
# Summary of the method: as §1
# [9] = target: Neu5Ac(a2-6)GlcNAc(b1-4)GlcNAc(b1-4)GlcNAc
# Summary of the method: as §1
# [10] = target: Neu5Ac(a2-8)Neu5Ac
# Summary of the method: as §1
# [11] = target: Neu5Ac(a2-8)Neu5Ac(a2-3)Gal(b1-4)Glc
# Summary of the method: as §1
# [12] = target: Neu5Ac(a2-8)Neu5Ac(a2-3)[GalNAc(b1-4)]Gal(b1-4)Glc
# Summary of the method: as §1
# [13] = target: Neu5Ac(a2-8)Neu5Ac(a2-8)Neu5Ac
# Summary of the method: as §1
# [14] = target: Neu5Ac(a2-8)Neu5Ac(a2-8)Neu5Ac(a2-3)Gal(b1-4)Glc
# Summary of the method: as §1
# [15] = target: Neu5Ac(a2-8)Neu5Ac(a2-8)Neu5Ac(a2-3)[GalNAc(b1-4)]Gal(b1-4)Glc
# Summary of the method: as §1
# [16] = target: Neu5Ac(a2-8)Neu5Ac(a2-8)Neu5Ac(a2-8)Neu5Ac(a2-3)[GalNAc(b1-4)]Gal(b1-4)Glc
# Summary of the method: as §1
# [17] = target: Neu5Ac(b2-6)Gal(b1-4)GlcNAc
# Summary of the method: as §1
# [18] = target: Neu5Ac(b2-6)GalNAc
# Summary of the method: as §1
# [19] = target: Neu5Ac9Ac(a2-3)Gal(b1-3)GlcNAc
# Summary of the method: as §1
# [20] = target: Neu5Ac9Ac(a2-3)Gal(b1-4)GlcNAc
# Summary of the method: as §1
# [21] = target: Neu5Ac9Ac(a2-6)Gal(b1-4)GlcNAc
# Summary of the method: as §1
# [22] = target: Neu5Gc(a2-3)Gal(b1-3)GlcNAc
# Summary of the method: as §1
# [23] = target: Neu5Gc(a2-3)Gal(b1-3)[Fuc(a1-4)]GlcNAc
# Summary of the method: as §1
# [24] = target: Neu5Gc(a2-3)Gal(b1-4)Glc
# Summary of the method: as §1
# [25] = target: Neu5Gc(a2-3)Gal(b1-4)GlcNAc
# Summary of the method: as §1
# [26] = target: Neu5Gc(a2-3)Gal(b1-4)[Fuc(a1-3)]GlcNAc
# Summary of the method: as §1
# [27] = target: Neu5Gc(a2-6)Gal(b1-4)GlcNAc
# Summary of the method: as §1
# [28] = target: Neu5Gc(a2-6)GalNAc
# Summary of the method: as §1
# [29] = target: Neu5Gc(b2-6)Gal(b1-4)GlcNAc
# Summary of the method: as §1
binder,measurement,setting,value
B1,glycan array binding signal (z-score),[1],-0.539
same,glycan array binding signal (z-score),[2],-0.717
same,glycan array binding signal (z-score),[3],0.462
same,glycan array binding signal (z-score),[4],1.42
same,glycan array binding signal (z-score),[5],2.18
same,glycan array binding signal (z-score),[6],-0.605
same,glycan array binding signal (z-score),[7],-0.568
same,glycan array binding signal (z-score),[8],-1.01
same,glycan array binding signal (z-score),[9],-0.816
same,glycan array binding signal (z-score),[10],-0.55
same,glycan array binding signal (z-score),[11],-0.127
same,glycan array binding signal (z-score),[12],0.053
same,glycan array binding signal (z-score),[13],0.786
same,glycan array binding signal (z-score),[14],3.59
same,glycan array binding signal (z-score),[15],0.412
same,glycan array binding signal (z-score),[16],0.721
same,glycan array binding signal (z-score),[17],0.174
same,glycan array binding signal (z-score),[18],-0.379
same,glycan array binding signal (z-score),[19],-0.492
same,glycan array binding signal (z-score),[20],0.165
same,glycan array binding signal (z-score),[21],-0.403
same,glycan array binding signal (z-score),[22],0.506
same,glycan array binding signal (z-score),[23],0.838
same,glycan array binding signal (z-score),[24],1.22
same,glycan array binding signal (z-score),[25],-0.694
same,glycan array binding signal (z-score),[26],0.113
same,glycan array binding signal (z-score),[27],0.3
same,glycan array binding signal (z-score),[28],-0.354
same,glycan array binding signal (z-score),[29],-0.431

# Exported tab-delimited: part of the list above.
binder	measurement	setting	value
B1	glycan array binding signal (z-score)	[1]	-0.539
same	glycan array binding signal (z-score)	[2]	-0.717

# — the supplement of paper PMC8728848
